PubChem BioAssay AID602196 | INSERM – 2012
The whole screen tested about 23,000 reagents; below is a part drawn at random. Over the whole deposit, 455 (2%) are marked active. 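Active includes both protection and sensitisation; some change values fall well beyond the stated -50 to +50 range.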 The record does not give: the amount of reagent.

Purpose: 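Genes whose knock-down alters cisplatin killing of lung cancer cells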
Cells: human A549 lung cancer cells
Reagents: siRNA pair against human genes
Timing: 48 h transfection before cisplatin; time from cisplatin to read-out not stated
Challenge: cisplatin at a dose killing half of control-siRNA cells; exact dose and duration not given
Measured: 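Shift in cisplatin death relative to control siRNA, from -50 (all cells die) to +50 (no cells die); siRNAs harmful on their own scored 0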
Scale: two-siRNA summed score (-2 to +2): higher = both siRNAs protect from cisplatin killing; -2 means both sensitise; mean protection from cisplatin (shift in death) and protection from cisplatin (shift in death), siRNA C and protection from cisplatin (shift in death), siRNA D: higher = protection from cisplatin killing
Active means: 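siRNAs harmful alone (LDH or WST-1) get 0; others get +1 for less and -1 for more cisplatin killing; genes are active when the two siRNAs give the same sign, summing to ±2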
Calls: active = both siRNAs shift cisplatin killing the same way; inactive = no consistent shift, or siRNA harmful alone

gene symbol,two-siRNA summed score (-2 to +2),mean protection from cisplatin (shift in death) (%),"protection from cisplatin (shift in death), siRNA C (%)","protection from cisplatin (shift in death), siRNA D (%)",activity call
ST8SIA2,-1,-7.6,12.5,-27.6,inactive
CRNKL1,0,4.7,2.5,6.9,inactive
LOC441437,0,-4,1.3,-9.4,inactive
LOC121981,0,5.8,2.3,9.4,inactive
LOC283034,0,4.2,2.5,5.9,inactive
COMP,-1,-11,-17.2,-4.8,inactive
LOC389067,1,15.8,16.6,15,inactive
PLA2G2F,0,19.8,11.4,28.2,inactive
GPR179,-1,9.8,-10.9,30.5,inactive
SMTNL1,1,13,5.1,20.9,inactive
LOC402120,0,5.9,9.3,2.6,inactive
KY,0,7.2,13.9,0.5,inactive
ADAM33,0,11.5,18.3,4.7,inactive
H2BC10,0,9.4,15.3,3.5,inactive
DUSP11,0,-0.8,-26.4,24.8,inactive
APOBEC1,0,4.8,0.6,9.1,inactive
LOC441697,0,7.5,2.6,12.4,inactive
EPHA3,1,15.2,21.7,8.7,inactive
LOC441237,0,3.1,-0.2,6.3,inactive
MFRP,-1,-10.6,0.5,-21.6,inactive
WNT2,0,0.9,-19.7,21.6,inactive
MGAT4B,0,0.9,1.1,0.8,inactive
ZPLD1,0,4.9,2.1,7.7,inactive

As entered above:
Under “mean protection from cisplatin (shift in death) (%)”, DUSP11 is entered as -0.8
Value for ST8SIA2 in “protection from cisplatin (shift in death), siRNA C (%)”: 12.5
For “protection from cisplatin (shift in death), siRNA D (%)”, LOC402120 is entered as 2.6
